These are yes or no findings as the source states them, for the method shown. Binding seen in cells or lysates may run through a third protein. Some entries that bind do so weakly or less than the wild type.
Molecular target: Heat shock protein 27 (human (endogenous in Hep3B, MHCC97L, MHCC97H)) (UniProt P04792)
Experiment: co-IP; immunoprecipitation with anti-HSP27 antibody from lysates (1 mg total protein) of Hep3B, MHCC97L and MHCC97H cells, 4°C overnight, Protein G-Sepharose; western blot; 20 mM Tris pH 7.5, 150 mM NaCl, 1% Triton X-100

The chains behind the UniProt entries cited, without tags or fusion partners.
UniProt P04792: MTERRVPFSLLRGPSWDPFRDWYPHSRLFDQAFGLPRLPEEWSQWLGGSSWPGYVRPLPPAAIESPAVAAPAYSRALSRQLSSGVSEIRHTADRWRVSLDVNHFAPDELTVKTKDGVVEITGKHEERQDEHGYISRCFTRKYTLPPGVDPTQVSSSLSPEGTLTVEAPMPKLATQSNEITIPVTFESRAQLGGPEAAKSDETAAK
UniProt P25963: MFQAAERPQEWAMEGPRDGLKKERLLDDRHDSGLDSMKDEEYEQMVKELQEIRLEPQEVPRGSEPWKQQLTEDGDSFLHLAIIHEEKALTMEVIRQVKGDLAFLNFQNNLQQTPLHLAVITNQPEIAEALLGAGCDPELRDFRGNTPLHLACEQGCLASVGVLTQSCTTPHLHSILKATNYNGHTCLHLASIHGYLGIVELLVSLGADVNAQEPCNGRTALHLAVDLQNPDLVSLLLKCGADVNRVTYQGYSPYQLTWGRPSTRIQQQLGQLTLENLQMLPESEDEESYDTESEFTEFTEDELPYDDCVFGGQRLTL

binding: binds
Substance: IκBα (from UniProt P25963 1-317)

Reference: publication PMC2681475
